Assay results taken from PubChem BioAssay AID1508600 (Functional Genomics Laboratory (NCATS/FGL), 2020).
Among all 53,000 sequences or so, about 3,700 (7%) were called active.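 The calls were made as follows: active = gene knockdowns whose robust z-score for IL-1 alpha signal is at least 2 or at most -2, so actives lie on both sides; inactive = the rest.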 The list shows a part of the results.

Assay: Components of the Cytosolic LPS Sensing Pathway: Gene Identification via Genome-wide siRNA Screen;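 also: robust z of the log signal after scaling to non-targeting control siRNA wells of the plate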
Conditions: RAW264.7 macrophages, IL-1a HTRF, actives lie on both sides, screened at 100 nM (by protocol), cells primed 5 h with Pam3CSK4 first
Procedure, shortened: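 RAW264.7 mouse macrophages reverse-transfected with single siRNAs (100 nM final) for 48h, primed with Pam3CSK4 for 5 hours, then transfected with LipidA for 24 hour. Supernatant IL-1a read by HTRF; values normalized to negative-control median, log-transformed robust z-scores.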

Row | Sequence | z-score
1 | GGCAUUCUGUGAGACACAATT against Exosc10 | inactive: 0.389
2 | GGAUUCUUGCACUAUUUAGTT against Cep135 | inactive: -0.315
3 | GCAAGUUUGAGGAUCUAAATT against Gnai2 | inactive: 0.593
4 | CCGAGAAAAAGCAGAAAUCTT against Psma2 | inactive: -0.98
5 | CCAUAUGUGAUUUGUCUUGTT against Cacnb2 | inactive: -0.706
6 | GGAAAGCCGUAUAGUUGUATT against Zfp791 | inactive: -0.154
7 | GCACUAACCUAUACAUCUCTT against Sorl1 | inactive: 1.33
8 | CGCUUACAUGAACUUCAUATT against Taar9 | inactive: -1.07
9 | CCACAUGAGUGGACCUACGTT against Arid3c | inactive: -1.33
10 | UGACACCUUCUCAUUGGCCTT against Rexo1 | inactive: -1.51
11 | GCAUUUUCUAGAUGGAAGCTT against Hao1 | inactive: 0.748
12 | GGGUUACUUCAGAUUUUGCTT against Atoh8 | inactive: -0.939
13 | GGACCUUUCCCAAUUCCUUTT against Cyp2e1 | inactive: 0.744
14 | GGUUUAGACAGACUUUAGATT against Zbtb9 | inactive: -0.377
15 | GGACGAAGCUCUGAAACACTT against Fbxl2 | inactive: 1.32
16 | GGCUGUCCUUUUCCUCUUATT against Yipf6 | inactive: 1.49
17 | GGCAUGUAUCUCAACAUGUTT against Fcsk | inactive: 0.226
18 | CGUACUAUACUAACACAGATT against Arl5a | inactive: 0.391
19 | GGGAAAUUUAAAGCCCUCUTT against Olfr1225 | inactive: 0.488
20 | GUCUCAAAUUUAUCCUGAUTT against Lamtor2 | inactive: -0.117
21 | GCGACUCCUAGACAGAAAGTT against Golph3l | inactive: 0.116
22 | GGAACAAGUAAAAUUCGUCTT against Tssk2 | inactive: 1.71

Row | Sequence | z-score
23 | CCCUGGCUGUCCUCUAUAATT against Ripply1 | inactive: -0.767
24 | GCUAGUUUGCCUGAAUAUUTT against Kif27 | inactive: -0.871
25 | CCGAUUGAAAUAUGAAUCCTT against Cuedc1 | inactive: 1.22
26 | GGUGGCUGUUCUUUUGACGTT against Ptprt | inactive: -1.21
27 | GGACCUUUGUAUUUCAUUUTT against Abhd14a | inactive: 0.503
28 | GGUCGACAGAUCAAGCCUUTT against Psmb3 | active: -2.18
29 | GGUAAACAUGUCUAUGACUTT against Fpr-rs7 | active: -2.09
30 | GGUCAAGAACAAUUCCAAGTT against Itih4 | inactive: 1.66
31 | GGAAUUUCUUCUGAAUGUUTT against Bach2 | inactive: -1.32
32 | GGAAUUCAGUAGGUGGUCUTT against Rab39b | inactive: -0.963
33 | CCCUCUCCUAUUCUACAUGTT against Arf3 | inactive: -0.466
34 | GGCAUGGAAACUGUUUUGCTT against Olfr677 | inactive: -0.904
35 | GAACUACCUGGACUUCCACTT against Cox6b1 | active: 2.5
36 | CCAAGCCUCCAAUGGUCAGTT against Stat6 | inactive: -0.623
37 | GGAGUGGAAAAAGUGACCATT against Cox4i2 | inactive: -0.868
38 | CCCACAUCCCUAAGUUGUGTT against Kash5 | inactive: 1.55
39 | CCUUCCACCAACAAAAGCCTT against Hsh2d | inactive: -0.398
40 | GGAUGCUUACCAAAGGAUATT against Mrps18a | inactive: -0.48
41 | CCGAGACAUAAAUUUUCCATT against Cphx1 | inactive: -0.547
42 | GGCUCGGAAAGAAAAGAACTT against Ctr9 | inactive: -1.16
43 | GGCCACAGUAAUGGGAAAUTT against Cga | inactive: -0.208
44 | CCUGUGACUCUAUCCAUCATT against Dsg1c | inactive: 0.424

Row | Sequence | z-score
45 | CGAAAGUGAUCUUUGGAGCTT against Fpr-rs6 | inactive: -1.9
46 | CCGAGAACAGUUGAAGAAGTT against Srbd1 | inactive: 0.174
47 | GGAAGAAAGUGAGCCUUGUTT against Senp6 | active: -2.14
48 | GUGUACGAGCCUACCGUUATT against Cox14 | inactive: 1.05
49 | GGAGAGAACUGGAAGAGAGTT against Cwc15 | inactive: 0.729
50 | GCCACCGAACCUAUAAAGCTT against Scd4 | inactive: 0.265
51 | CCUAACUUCAGAACUGAAATT against Sh3gl3 | inactive: -0.806
52 | GGCCCAGCAGACAACUUUATT against Sgca | inactive: 0.797
53 | UGCCCUUCCUAUUUUAUAATT against Ly6k | inactive: -0.378
54 | GGGAUCAAAUGUCUUUCCUTT against Wdr19 | inactive: -0.794
55 | CGGACGAUUCGUGUCAAUUTT against Ppie | inactive: 0.619
56 | GGCACUUACUGUGAAAUUGTT against Tm9sf3 | inactive: -0.151
57 | CGAACCGAACACAUAUAAATT against Scnn1a | inactive: 0.303
58 | GCACUGUUCUCAAAGUUAATT against Ddx3x | inactive: -0.248
59 | GCUGAAAGUAUUCAUGUAATT against Sec13 | inactive: -1.6
60 | GGCCCUUCCAGAAGAUACATT against Speer3 | inactive: -1.1
61 | CCAUUACUCGCAUCUGGGATT against Tfap2c | inactive: 0.561
62 | CGAUCCAACCAGAUGAACATT against Ralgps1 | inactive: 0.383
63 | GGUUAUGGAAGAAAUUGCUTT against Tekt1 | inactive: 0.148
64 | GGUCAAUUCGGAGGUCCAGTT against Zfp385a | inactive: -0.51
65 | GGAAGAUGUCCAAACCCGCTT against Tspan4 | inactive: 0.671
66 | GGCUGAGAUUAUCACUGUCTT against Vps25 | inactive: -0.518

Row | Sequence | z-score
67 | GGACAUGUACAGUUUAUUGTT against Cacna1a | inactive: 0.723
68 | GGAGUACUUCGUGUUCCGGTT against Tprgl | inactive: -0.945
69 | GGAAAGAUGUCAAAGAAAUTT against Gnat2 | inactive: -1.14
70 | GCAGUGCACAGAAAUGGAATT against Olfr12 | inactive: -1.05
71 | GGAGAUGGCUAUAUUCUGATT against Lipa | inactive: 0.0668
72 | GGAGAAGGAAUAAGUUUUGTT against Synj2bp | inactive: 1.07
73 | CCACUUGUAGACUUGAUUUTT against Jag1 | inactive: 0.618
74 | GGUGGAAGAUAUCAACUAGTT against Ube2k | inactive: 1.27
75 | GGAGGCACGAAUUGCUGCUTT against Gadd45gip1 | inactive: 0.178
76 | CCUGUCCUCAUGACAUGAUTT against Sypl2 | inactive: 0.916
77 | GCAUAUGGAGCAGUCAUUGTT against Gm6116 | inactive: -0.627
78 | GCUGUUAACAGCACAACCATT against Slc36a2 | inactive: 1.3
79 | GGGUGACCUUUCCAGAUGATT against Cldn13 | inactive: -0.846
80 | CCAAGUAUAAGAUCGUGACTT against Nod1 | inactive: -0.822
81 | GAUGCUGUAGUCUUGUGAGTT against Lce1a2 | inactive: 0.708
82 | CCCAUAUUAAUUAUGGCGUTT against Hadha | inactive: -0.189
83 | CCUACUCUAUCCCAAGGUCTT against Spatc1l | inactive: -1.02
84 | GGAGAUCCCAACCACGGAUTT against Otor | inactive: 1.52
85 | CGAUAACAGCUGUUAACGUTT against Mttp | inactive: 1.9
86 | GGGACAACAUUCAAAGGUCTT against Hdgfl1 | inactive: -0.322
87 | CGUGGGAUUUAAUGAUCAATT against Nid2 | inactive: 1.09
88 | CGGCCUGACAUCAACCUUGTT against Fam193b | inactive: -0.915

A section from further up, as a working copy:
Row | Sequence | z-score
42 | GGCUCGGAAAGAAAAGAACTT against Ctr9 | inactive: -1.16
43 | GGCCACAGUAAUGGGAAAUTT against Cga | inactive: -0.208

More results follow:

Row | Sequence | z-score
89 | GCAUCCAUCAAAUCAAAAUTT against Met | active: 3.03
90 | GGAAUUUUGACAGAAAACCTT against Cradd | inactive: 0.343
91 | GGACAGUAAGGAUAAAAGCTT against Hsd3b3 | inactive: -0.883
92 | GGACGUGGUCCAUAGACCATT against Cd276 | inactive: 1.9
93 | GGAAGAAACUGUAUGAAAGTT against Mycs | inactive: -0.204
94 | GGGCUUGUGUAAAGUGGAUTT against Kin | inactive: 0.298
95 | GGAAGCUAGAUUUUGAGUATT against Vmn1r66 | inactive: 0.769
96 | GGCCCUCUAUGAGUAUCUGTT against Olfr536 | inactive: -1.02
97 | CCCGUCACCACUUAACAUGTT against Rasal2 | inactive: 0.699
98 | GGACCGAAACUCAGGCUGATT against Adra1d | inactive: -0.49
99 | CCCUUUUGUGACCUUGUUATT against Scoc | inactive: -0.22
100 | GGACAUCCAUCAGUACAGGTT against Hras | inactive: 0.812
101 | CCCUGUCAAAAAAGUGGCCTT against Olfr1151 | inactive: 1.4
102 | GGAAUUAAUGACCAAGUUATT against A830018L16Rik | inactive: 0.0225
103 | GGCCAGUGUAUUUGACCUGTT against Slc22a18 | inactive: -1.24
104 | CCAGAACCCUAGACUUUGCTT against Wfdc6b | inactive: 0.362
105 | CCGUGGGACCAGAGUUAAATT against Cd300lb | inactive: 0.691
106 | GGAAGAAGGCUGGUACUUATT against Lao1 | inactive: -1.05
107 | GGUGAUCACUAACCUACUATT against Fancm | inactive: -0.316

Given as tab-separated lines: entries from further up
Row	Sequence	z-score
89	GCAUCCAUCAAAUCAAAAUTT against Met	active: 3.03
90	GGAAUUUUGACAGAAAACCTT against Cradd	inactive: 0.343
91	GGACAGUAAGGAUAAAAGCTT against Hsd3b3	inactive: -0.883
92	GGACGUGGUCCAUAGACCATT against Cd276	inactive: 1.9
93	GGAAGAAACUGUAUGAAAGTT against Mycs	inactive: -0.204
